Values from PubChem BioAssay AID1224826 (NIAID, 2016)

Purpose: 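Genes that change LPS-induced Tnf promoter activity in mouse macrophages when knocked down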 (primary screen)
Cell system: RAW264.7 G9 macrophages from mouse bearing reporters for p65 (GFP) and the Tnf promoter (mCherry)
Reagents: siRNA pool against mouse genes, 100 nM
Duration: 16 h of LPS stimulation, after 2 days of siRNA transfection
Challenge: bacterial lipopolysaccharide (Salmonella minnesota R595), 10 ng/ml
Read-out: 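Nuclear mCherry signal of the Tnf promoter reporter measured by imaging after background removal, scaled to each plate median and turned into robust z-scores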
Reading the numbers: Tnf reporter robust z-score: higher = stronger Tnf promoter reporter signal after LPS; Tnf reporter intensity: higher = stronger Tnf promoter reporter signal
Hit rule: 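a well counts as active at a score of -1.3 or below (Tlr4 knock-down control median) or above 3 (raised signal); controls and wells holding fewer than 50 cells are excluded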
Meaning of the calls: active = Tnf reporter clearly lowered or raised; inactive = no clear change in Tnf reporter
Shown is one part, drawn at random, of about 17,000 reagents tested. About 1,110 of all reagents (6.6%) count as active. 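Active means lowered or raised reporter signal; replicate intensities are raw and not normalised per plate.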

| gene knocked down | PubChem SID | Tnf reporter robust z-score | fewer than 50 cells in well | Tnf reporter intensity, replicate 1 | Tnf reporter intensity, replicate 2 | activity call |
| --- | --- | --- | --- | --- | --- | --- |
| Ubap2 (ubiquitin-associated protein 2) | SID315473670 | 0.57 | enough cells in well | 288 | 257 | inactive |
| Slc17a4 | SID315481181 | -0.87 | enough cells in well | 117 | 125 | inactive |
| Cst3 (cystatin C) | SID315466180 | 0.32 | enough cells in well | 218 | 268 | inactive |
| Sgsm2 (small G protein signaling modulator 2) | SID315476106 | -1.45 | enough cells in well | 104 | 76.8 | active |
| Krtap1-5 (keratin associated protein 1-5) | SID315473862 | – | fewer than 50 cells per well; well left out of calls | 80.6 | 24.9 | inactive |
| Prl8a6 (prolactin family 8, subfamily a, member 6) | SID315468703 | 0.2 | enough cells in well | 138 | 139 | inactive |
| Mrpl30 (mitochondrial ribosomal protein L30) | SID315476635 | 1.22 | enough cells in well | 318 | 151 | inactive |
| Lcn8 (lipocalin 8) | SID315475535 | 2.98 | enough cells in well | 262 | 369 | inactive |
| Wdr31 (WD repeat domain 31) | SID315474223 | -0.09 | enough cells in well | 117 | 125 | inactive |
| Flot2 (flotillin 2) | SID315466718 | -1.31 | enough cells in well | 167 | 57.6 | active |
| Tti1 (TELO2 interacting protein 1) | SID315475119 | 0.36 | enough cells in well | 278 | 83.9 | inactive |
| Sfpq | SID315474246 | -1.23 | enough cells in well | 158 | 131 | inactive |
| Med4 (mediator complex subunit 4) | SID315472988 | -0.81 | enough cells in well | 155 | 182 | inactive |
| Phb1 (prohibitin 1) | SID315468492 | -1 | enough cells in well | 144 | 144 | inactive |
| Foxb1 (forkhead box B1) | SID315472080 | 0.09 | enough cells in well | 301 | 209 | inactive |
| Wee1 (WEE 1 homolog 1 (S. pombe)) | SID315470030 | – | fewer than 50 cells per well; well left out of calls | 75.7 | 111 | inactive |
| Eid1 (EP300 interacting inhibitor of differentiation 1) | SID315471906 | -0.22 | enough cells in well | 186 | 148 | inactive |
| Pip5k1b (phosphatidylinositol-4-phosphate 5-kinase, type 1 beta) | SID315468521 | -0.55 | enough cells in well | 176 | 178 | inactive |
| Ctc1 (CTS telomere maintenance complex component 1) | SID315473683 | 3.43 | enough cells in well | 545 | 172 | active |
| Cdo1 (cysteine dioxygenase 1, cytosolic) | SID315465920 | -0.25 | enough cells in well | 151 | 161 | inactive |
| Map4k4 (mitogen-activated protein kinase kinase kinase kinase 4) | SID315470483 | -0.63 | enough cells in well | 153 | 94.8 | inactive |
| Or2y10 (olfactory receptor family 2 subfamily Y member 10) | SID315481951 | -0.55 | enough cells in well | 153 | 93.9 | inactive |
| Slc30a8 | SID315479442 | – | fewer than 50 cells per well; well left out of calls | 82.8 | 80.6 | inactive |
| Slc25a41 | SID315476393 | – | fewer than 50 cells per well; well left out of calls | 0 | 0 | inactive |
| Zpbp (zona pellucida binding protein) | SID315471081 | – | fewer than 50 cells per well; well left out of calls | 46.9 | 21.3 | inactive |
| Or8b41 (olfactory receptor family 8 subfamily B member 41) | SID315480152 | 1.04 | enough cells in well | 120 | 175 | inactive |
| Dao (D-amino acid oxidase) | SID315466262 | 1.43 | enough cells in well | 339 | 343 | inactive |
| Adam22 (a disintegrin and metallopeptidase domain 22) | SID315465291 | -0.73 | enough cells in well | 123 | 132 | inactive |
| BC024139 (cDNA sequence BC024139) | SID315480944 | -1.09 | enough cells in well | 120 | 144 | inactive |
| Cavin4 (caveolae associated 4) | SID315473364 | – | fewer than 50 cells per well; well left out of calls | 170 | 40 | inactive |
| Or52n3 (olfactory receptor family 52 subfamily N member 3) | SID315480455 | 0.1 | enough cells in well | 98.1 | 126 | inactive |
| Exosc8 (exosome component 8) | SID315473855 | 0.96 | enough cells in well | 282 | 212 | inactive |
| Cdca5 (cell division cycle associated 5) | SID315473259 | – | fewer than 50 cells per well; well left out of calls | 168 | 176 | inactive |
| Lhcgr (luteinizing hormone/choriogonadotropin receptor) | SID315467746 | 0.27 | enough cells in well | 267 | 265 | inactive |
| Psmb3 (proteasome (prosome, macropain) subunit, beta type 3) | SID315470420 | – | fewer than 50 cells per well; well left out of calls | 244 | 127 | inactive |
| Gpr26 (G protein-coupled receptor 26) | SID315479130 | -0.46 | enough cells in well | 162 | 284 | inactive |
| Or13a20 (olfactory receptor family 13 subfamily A member 20) | SID315480579 | 1.04 | enough cells in well | 324 | 134 | inactive |
| Obi1 (ORC ubiquitin ligase 1) | SID315474562 | -0.53 | enough cells in well | 144 | 57.5 | inactive |
| Pla2g7 | SID315470556 | -0.34 | enough cells in well | 203 | 184 | inactive |
| Hand1 (heart and neural crest derivatives expressed 1) | SID315467140 | 0.34 | enough cells in well | 474 | 214 | inactive |
| Atp1b1 (ATPase, Na+/K+ transporting, beta 1 polypeptide) | SID315465545 | -0.97 | enough cells in well | 132 | 94.5 | inactive |
| Asb3 (ankyrin repeat and SOCS box-containing 3) | SID315472157 | 0.84 | enough cells in well | 244 | 188 | inactive |
| Dmrtc1a (DMRT-like family C1a) | SID315474150 | -0.95 | enough cells in well | 115 | 47.1 | inactive |
| Tmem230 (transmembrane protein 230) | SID315474096 | -0.84 | enough cells in well | 127 | 105 | inactive |
| Klhdc1 (kelch domain containing 1) | SID315480940 | -0.3 | enough cells in well | 179 | 114 | inactive |
| Asgr1 (asialoglycoprotein receptor 1) | SID315465525 | 2.69 | enough cells in well | 251 | 343 | inactive |
| P3h2 (prolyl 3-hydroxylase 2) | SID315477645 | -0.53 | enough cells in well | 174 | 105 | inactive |
| Fam13a (family with sequence similarity 13, member A) | SID315471930 | 0.17 | enough cells in well | 214 | 159 | inactive |
| Or12e8 (olfactory receptor family 12 subfamily E member 8) | SID315480637 | 2.21 | enough cells in well | 288 | 294 | inactive |
| Edem1 (ER degradation enhancer, mannosidase alpha-like 1) | SID315477398 | 1.6 | enough cells in well | 338 | 371 | inactive |
| Arhgap5 (Rho GTPase activating protein 5) | SID315465504 | 0.8 | enough cells in well | 221 | 207 | inactive |
| Hykk (hydroxylysine kinase 1) | SID315479248 | 1.18 | enough cells in well | 232 | 244 | inactive |
| Ugdh (UDP-glucose dehydrogenase) | SID315469927 | 1.75 | enough cells in well | 193 | 139 | inactive |
| Il1rap (interleukin 1 receptor accessory protein) | SID315467447 | -0.06 | enough cells in well | 264 | 126 | inactive |
| Tbcel (tubulin folding cofactor E-like) | SID315480972 | -0.51 | enough cells in well | 159 | 92.5 | inactive |
| Grk6 (G protein-coupled receptor kinase 6) | SID315470369 | 0.58 | enough cells in well | 292 | 197 | inactive |
| Mymk (myomaker, myoblast fusion factor) | SID315472238 | -1.04 | enough cells in well | 187 | 50.4 | inactive |
| Pask (PAS domain containing serine/threonine kinase) | SID315480841 | 1.66 | enough cells in well | 256 | 297 | inactive |
| Sgo1 (shugoshin 1) | SID315474544 | – | fewer than 50 cells per well; well left out of calls | 48.8 | 163 | inactive |
| Prima1 (proline rich membrane anchor 1) | SID315477264 | -1.14 | enough cells in well | 70.8 | 88.5 | inactive |
| Gtf3c2 (general transcription factor IIIC, polypeptide 2, beta) | SID315474308 | -0.48 | enough cells in well | 142 | 121 | inactive |
| Gmpr2 (guanosine monophosphate reductase 2) | SID315476491 | -0.03 | enough cells in well | 213 | 206 | inactive |
| Otoa (otoancorin) | SID315479867 | 0.99 | enough cells in well | 317 | 246 | inactive |
| Or7d9 (olfactory receptor family 7 subfamily D member 9) | SID315480466 | -0.91 | enough cells in well | 165 | 55.8 | inactive |
| Tmem18 (transmembrane protein 18) | SID315477712 | 2.63 | enough cells in well | 380 | 403 | inactive |
| Galnt4 (polypeptide N-acetylgalactosaminyltransferase 4) | SID315466820 | -0.32 | enough cells in well | 215 | 126 | inactive |
| Or52a5 (olfactory receptor family 52 subfamily A member 5) | SID315468331 | 0.67 | enough cells in well | 105 | 164 | inactive |
| Gtf2h2 (general transcription factor II H, polypeptide 2) | SID315470223 | 0.64 | enough cells in well | 258 | 336 | inactive |
| Zfp474 (zinc finger protein 474) | SID315472626 | 0.26 | enough cells in well | 233 | 69.9 | inactive |
| Hdgfl1 (HDGF like 1) | SID315467171 | 0.7 | enough cells in well | 228 | 92.4 | inactive |
| Cxcl10 (C-X-C motif chemokine ligand 10) | SID315467379 | 0.32 | enough cells in well | 219 | 128 | inactive |
| Isl2 (insulin related protein 2 (islet 2)) | SID315476435 | -0.42 | enough cells in well | 219 | 120 | inactive |
| 5930422O12Rik (RIKEN cDNA 5930422O12 gene) | SID315481149 | -0.04 | enough cells in well | 166 | 153 | inactive |
| Urod (uroporphyrinogen decarboxylase) | SID315469952 | 0.2 | enough cells in well | 265 | 221 | inactive |
| Gm4894 (predicted gene 4894) | SID315479242 | 1.23 | enough cells in well | 247 | 212 | inactive |

Taken from above:
Result for Klhdc1 (kelch domain containing 1) [SID315480940] in “Tnf reporter robust z-score”: -0.3
Result of Hand1 (heart and neural crest derivatives expressed 1) [SID315467140] in “Tnf reporter intensity, replicate 2”: 214
For “Tnf reporter intensity, replicate 2”, Krtap1-5 (keratin associated protein 1-5) [SID315473862] has 24.9
Value of Tti1 (TELO2 interacting protein 1) [SID315475119] in “fewer than 50 cells in well”: enough cells in well
For “activity call”, Asgr1 (asialoglycoprotein receptor 1) [SID315465525] has inactive
Under “activity call”, Sgo1 (shugoshin 1) [SID315474544] has inactive
